Data source: PubChem BioAssay AID1259405 (NCATS, 2018)

Test: 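Knock-downs that lift recombinant protein yield in hamster ovary cells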 (primary screen)
Cells: Chinese hamster CHO-K1 ovary cells with stable secreted eGFP expression
Reagent: single siRNA against mouse genes, 0.8 pmol siRNA per well (2 µl of 400 nM stock)
Duration: 3 days
Read-out: 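Percent of the per-plate non-targeting control median for intracellular GFP per well by laser scanning cytometry and for cell viability by ATP luminescence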
Direction: GFP, % of control: higher = more GFP per well, higher productivity; viability (ATP), % of control: higher = more viable cells (more ATP)
Active means: 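Called active when intracellular GFP, relative to negative control, is at or above 120%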
In all, the deposit lists about 50,000 reagents; below is an unselected part. About 4,000 of them (8%) count as active. 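Mouse siRNA library applied to hamster cells; one well for each siRNA.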 The numbers tell different reagents against one gene apart.

gene knocked down,reagent,"GFP, % of control","viability (ATP), % of control",activity call
Pmel (GeneID 20431),1,64.8,60.4,inactive
Pmel (GeneID 20431),2,117,88.1,inactive
Pmel (GeneID 20431),3,82.5,73.7,inactive
Nosip (GeneID 66394),1,79.1,33.1,inactive
Nosip (GeneID 66394),2,9.91,3.15,inactive
Nosip (GeneID 66394),3,122,64.7,active
Zpld1 (GeneID 239852),1,79.3,64.2,inactive
Zpld1 (GeneID 239852),2,47.7,33,inactive
Zpld1 (GeneID 239852),3,62.5,97.3,inactive
Commd10 (GeneID 69456),1,58.5,76.4,inactive
Commd10 (GeneID 69456),2,67.7,71.7,inactive
Commd10 (GeneID 69456),3,92.2,136,inactive
Dynlt5 (GeneID 67344),1,84.9,91.3,inactive
Dynlt5 (GeneID 67344),2,58.4,59.8,inactive
Dynlt5 (GeneID 67344),3,81,77.3,inactive
Deaf1 (GeneID 54006),1,102,83.3,inactive
Deaf1 (GeneID 54006),2,113,87,inactive
Or51ag1 (GeneID 259085),1,64.8,60.3,inactive
Or51ag1 (GeneID 259085),2,140,83.6,active
Or51ag1 (GeneID 259085),3,115,123,inactive
Or9g3 (GeneID 258561),1,119,83.1,inactive
Or9g3 (GeneID 258561),2,30.4,50.5,inactive
Or9g3 (GeneID 258561),3,104,89.2,inactive
Anxa4 (GeneID 11746),1,75.8,103,inactive
Anxa4 (GeneID 11746),2,74.7,100,inactive
Anxa4 (GeneID 11746),3,58.1,98.9,inactive

Part of the list above, reformatted.
gene knocked down	reagent	GFP, % of control	viability (ATP), % of control	activity call
Nosip (GeneID 66394)	1	79.1	33.1	inactive
Nosip (GeneID 66394)	2	9.91	3.15	inactive
Nosip (GeneID 66394)	3	122	64.7	active
Zpld1 (GeneID 239852)	1	79.3	64.2	inactive
Zpld1 (GeneID 239852)	2	47.7	33	inactive
Zpld1 (GeneID 239852)	3	62.5	97.3	inactive
Commd10 (GeneID 69456)	1	58.5	76.4	inactive
Commd10 (GeneID 69456)	2	67.7	71.7	inactive
Commd10 (GeneID 69456)	3	92.2	136	inactive

Further results:
gene knocked down,reagent,"GFP, % of control","viability (ATP), % of control",activity call
Klk10 (GeneID 69540),1,72.5,88.7,inactive
Klk10 (GeneID 69540),2,165,135,active
Klk10 (GeneID 69540),3,12.1,39.2,inactive
Lypd6 (GeneID 320343),1,51.6,71.5,inactive
Lypd6 (GeneID 320343),2,137,68.7,active
Lypd6 (GeneID 320343),3,79.3,84.6,inactive
Akr1c21 (GeneID 77337),1,108,113,inactive
Akr1c21 (GeneID 77337),2,95.4,110,inactive
Akr1c21 (GeneID 77337),3,64.8,82.5,inactive
Tmed5 (GeneID 73130),1,77.5,74.5,inactive
Tmed5 (GeneID 73130),2,57.8,64.5,inactive
Tmed5 (GeneID 73130),3,53.1,62.5,inactive
Ccdc9b (GeneID 214239),1,43.5,47.7,inactive
Ccdc9b (GeneID 214239),2,29.2,24.7,inactive
Ccdc9b (GeneID 214239),3,47.3,85.4,inactive
Or5p52 (GeneID 258770),1,109,60,inactive
Or5p52 (GeneID 258770),2,103,97.1,inactive
Or5p52 (GeneID 258770),3,103,82.5,inactive
B9d2 (GeneID 232987),1,75.5,61.5,inactive
B9d2 (GeneID 232987),2,102,100,inactive
B9d2 (GeneID 232987),3,105,115,inactive
Or7e169 (GeneID 258521),1,73.9,40.7,inactive
Or7e169 (GeneID 258521),2,122,66.5,active
Or7e169 (GeneID 258521),3,76.7,111,inactive
Cd82 (GeneID 12521),1,78.9,50.9,inactive
Cd82 (GeneID 12521),2,56.9,65.3,inactive
Cd82 (GeneID 12521),3,42.8,54.9,inactive
Ilf2 (GeneID 67781),1,80.1,98.3,inactive
Ilf2 (GeneID 67781),2,90.2,89.3,inactive
Tmem214 (GeneID 68796),1,154,109,active
Tmem214 (GeneID 68796),2,77.4,69.8,inactive
Tmem214 (GeneID 68796),3,89.7,114,inactive
